Reference: patent WO2019173771A1

Molecular target: cynomolgus CD147 on the cynomolgus primary kidney epithelial cell line (cynomolgus monkey)
Experiment: FACS on cynomolgus primary kidney epithelial cells

B1: humanized anti-human CD147 hu3A11 antibody (3A11 Lc1 / Hc1) (antibody, V domains shown)
VH: EVQLVESGGGLVQPGGSLRLSCAASGFTFSNYWMDWVRQAPGKGLEWVGEIRLKSYNYATHYAASVKGRFTISRDDSKNSVYLQMNSLKTEDTAVYYCTAAGTDYWGQGTLVTVSS
VL: DIQMTQSPSSLSASVGDRVTITCRASQSVRTDVGWYQQKPGKAPKLLIYYSSNRYTGVPSRFSGSGSGTDFTLTISSLQPEDFATYYCQQDYSSPYTFGQGTKLEIK
Question: Which binding does the source give for B1 here?
Answer: binds

No constants are given. Whether binding was seen depends on the method and setting. A result given as binding can be weak or reduced; the word gives no strength.
